Test results taken from US20110123532A1.
No constants are given. Whether binding was seen depends on the method and setting. Some binding calls cover weakened binding; strength is not graded here.

Legend:
[1] = target: T1, mouse VEGF (mouse) (UniProt Q00731); experiment: SPR (Biacore 2000)
T1 sequence (looked up): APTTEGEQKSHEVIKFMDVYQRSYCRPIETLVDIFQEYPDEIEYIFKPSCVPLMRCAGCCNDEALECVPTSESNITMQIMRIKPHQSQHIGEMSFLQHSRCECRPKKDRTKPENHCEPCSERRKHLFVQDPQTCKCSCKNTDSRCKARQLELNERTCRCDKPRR

[2] = target: T1, mouse VEGF (mouse); experiment: SPR (Biacore 2000), title of Table 2

B1: 219R0202 IgG (anti-VEGF antibody reformatted to IgG2) (antibody, V domains shown)
VH: QVQLKQSGAELVKPGASVKLSCKASGYTFTNYWMHWVKLRPGQGFEWIGDINPSNGGTSYNEKFKRKATLTVDKSSSTAYMQLSSLTSEDSAVYYCTIHYYDNSYAMDYWGQGTSVTVSS
VL: DIQLTQSPSSLSASVGDRVTITCRASQGINNHLAWYQQKPGKVPKSLIYAASNLHSGVPSKFSGSGSGTHFTLIISSLQPEDIATYYCQQYDNLPLTFGGGTKVEIKR
B1 was tested, and the binding [1] was “binds” and the binding [2] was “binds”.

B2: 219R0302 IgG (anti-VEGF antibody reformatted to IgG2) (antibody, V domains shown)
VH: QVQLKQSGAELVKPGASVKLSCKASGYTFTNYWMHWVKLRPGQGFEWIGDINPSNGGTSYNEKFKRKATLTVDKSSSTAYMQLSSLTSEDSAVYYCTIHYYDNSYAMDYWGQGTSVTVSS
VL: DIQMTQSPSSLSASVGDRVTITCQASQDISNYVNWYQQKPGKAPKLLIYDASNLQTGVPSRFSGRGSGTHFTFTISSLQPEDLATYYCQQYDDLPPTFGRGTKLEIKR
For B2, the binding [1] was “binds” and the binding [2] was “binds”.
